# Source: the supplement of paper PMC12823440, “Inhibitors supercharge kinase turnover through native proteolytic circuits” (Nature, 2025)
# Amino acid sequences for entries named in this document (tags omitted). A change or cut given only in a name is not applied to a line headed by its entry.
# UniProt Q9Y616: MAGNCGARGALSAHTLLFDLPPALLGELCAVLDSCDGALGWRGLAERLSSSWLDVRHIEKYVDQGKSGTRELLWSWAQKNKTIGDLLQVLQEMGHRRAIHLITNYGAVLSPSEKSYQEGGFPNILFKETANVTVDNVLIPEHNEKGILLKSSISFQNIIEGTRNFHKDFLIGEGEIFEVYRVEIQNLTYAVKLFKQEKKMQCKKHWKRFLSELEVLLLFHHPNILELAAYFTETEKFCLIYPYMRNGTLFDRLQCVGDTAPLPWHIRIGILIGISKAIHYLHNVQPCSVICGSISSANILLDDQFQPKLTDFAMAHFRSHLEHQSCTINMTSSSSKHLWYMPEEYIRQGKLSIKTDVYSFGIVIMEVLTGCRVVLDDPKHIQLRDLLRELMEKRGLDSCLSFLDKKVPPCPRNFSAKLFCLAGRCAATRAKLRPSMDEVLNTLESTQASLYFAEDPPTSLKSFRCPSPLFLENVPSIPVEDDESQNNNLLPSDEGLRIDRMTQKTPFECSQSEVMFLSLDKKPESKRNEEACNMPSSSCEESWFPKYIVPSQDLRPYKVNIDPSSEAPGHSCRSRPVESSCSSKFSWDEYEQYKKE
# UniProt P23458: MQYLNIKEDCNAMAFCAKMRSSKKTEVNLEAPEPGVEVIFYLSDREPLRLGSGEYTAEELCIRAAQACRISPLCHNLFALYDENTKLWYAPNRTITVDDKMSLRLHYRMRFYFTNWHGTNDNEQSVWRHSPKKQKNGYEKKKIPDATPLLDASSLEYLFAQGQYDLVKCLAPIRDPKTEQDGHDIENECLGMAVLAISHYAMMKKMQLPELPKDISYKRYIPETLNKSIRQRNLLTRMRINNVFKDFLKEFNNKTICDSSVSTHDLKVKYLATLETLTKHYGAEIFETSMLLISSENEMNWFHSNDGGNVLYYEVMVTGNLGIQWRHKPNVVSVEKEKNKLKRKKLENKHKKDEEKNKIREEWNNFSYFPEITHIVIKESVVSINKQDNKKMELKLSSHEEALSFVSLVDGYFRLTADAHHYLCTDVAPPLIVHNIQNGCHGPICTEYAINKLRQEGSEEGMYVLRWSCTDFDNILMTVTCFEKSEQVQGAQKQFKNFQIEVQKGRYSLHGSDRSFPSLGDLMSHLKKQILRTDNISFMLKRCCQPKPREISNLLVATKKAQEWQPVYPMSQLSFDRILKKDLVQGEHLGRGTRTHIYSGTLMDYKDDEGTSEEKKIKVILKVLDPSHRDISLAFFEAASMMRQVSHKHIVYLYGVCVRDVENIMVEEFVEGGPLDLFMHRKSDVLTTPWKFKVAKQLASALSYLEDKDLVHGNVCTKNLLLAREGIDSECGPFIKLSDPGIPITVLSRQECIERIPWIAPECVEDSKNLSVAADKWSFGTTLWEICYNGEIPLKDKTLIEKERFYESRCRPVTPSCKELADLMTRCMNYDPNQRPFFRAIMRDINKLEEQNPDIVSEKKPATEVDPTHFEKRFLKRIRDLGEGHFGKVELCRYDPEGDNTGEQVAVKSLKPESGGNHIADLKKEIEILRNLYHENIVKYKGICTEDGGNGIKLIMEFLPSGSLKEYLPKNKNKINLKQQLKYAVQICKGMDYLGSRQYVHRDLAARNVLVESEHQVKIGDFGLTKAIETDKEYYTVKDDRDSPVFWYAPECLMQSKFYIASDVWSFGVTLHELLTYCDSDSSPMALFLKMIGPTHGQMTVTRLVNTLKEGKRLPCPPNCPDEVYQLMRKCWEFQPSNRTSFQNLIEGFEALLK
# UniProt P53667: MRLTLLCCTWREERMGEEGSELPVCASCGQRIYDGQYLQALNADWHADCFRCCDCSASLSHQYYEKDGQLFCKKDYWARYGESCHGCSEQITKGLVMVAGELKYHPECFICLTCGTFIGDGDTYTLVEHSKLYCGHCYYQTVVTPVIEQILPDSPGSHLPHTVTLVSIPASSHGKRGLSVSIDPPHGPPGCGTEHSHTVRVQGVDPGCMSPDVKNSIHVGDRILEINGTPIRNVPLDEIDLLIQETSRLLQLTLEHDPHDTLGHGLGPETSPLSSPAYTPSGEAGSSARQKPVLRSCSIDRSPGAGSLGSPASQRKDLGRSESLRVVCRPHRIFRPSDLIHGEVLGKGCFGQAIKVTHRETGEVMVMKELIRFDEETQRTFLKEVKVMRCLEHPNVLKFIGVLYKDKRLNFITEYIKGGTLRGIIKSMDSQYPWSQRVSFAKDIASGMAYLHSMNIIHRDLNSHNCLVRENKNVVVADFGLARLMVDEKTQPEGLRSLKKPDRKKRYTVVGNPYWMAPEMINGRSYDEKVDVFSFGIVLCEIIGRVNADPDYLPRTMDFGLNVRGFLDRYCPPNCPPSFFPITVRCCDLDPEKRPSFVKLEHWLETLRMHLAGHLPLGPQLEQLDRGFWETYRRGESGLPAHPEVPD
# UniProt P53671: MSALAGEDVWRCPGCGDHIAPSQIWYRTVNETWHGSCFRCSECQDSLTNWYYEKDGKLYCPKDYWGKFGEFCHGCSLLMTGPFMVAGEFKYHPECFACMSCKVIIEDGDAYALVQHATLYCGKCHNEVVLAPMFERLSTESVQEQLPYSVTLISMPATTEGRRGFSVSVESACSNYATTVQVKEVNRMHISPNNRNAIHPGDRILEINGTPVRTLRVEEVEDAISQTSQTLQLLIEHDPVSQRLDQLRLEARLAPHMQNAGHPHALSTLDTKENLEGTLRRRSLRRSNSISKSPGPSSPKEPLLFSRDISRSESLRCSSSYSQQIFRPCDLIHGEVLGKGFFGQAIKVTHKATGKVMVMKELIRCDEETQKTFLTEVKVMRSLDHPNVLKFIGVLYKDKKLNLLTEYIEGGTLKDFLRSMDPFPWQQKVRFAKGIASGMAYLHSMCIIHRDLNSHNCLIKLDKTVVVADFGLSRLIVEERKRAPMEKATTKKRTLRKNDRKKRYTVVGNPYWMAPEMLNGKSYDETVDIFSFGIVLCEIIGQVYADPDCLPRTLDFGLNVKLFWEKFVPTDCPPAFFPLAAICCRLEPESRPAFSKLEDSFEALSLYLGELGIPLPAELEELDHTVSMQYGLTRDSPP
# UniProt P07948: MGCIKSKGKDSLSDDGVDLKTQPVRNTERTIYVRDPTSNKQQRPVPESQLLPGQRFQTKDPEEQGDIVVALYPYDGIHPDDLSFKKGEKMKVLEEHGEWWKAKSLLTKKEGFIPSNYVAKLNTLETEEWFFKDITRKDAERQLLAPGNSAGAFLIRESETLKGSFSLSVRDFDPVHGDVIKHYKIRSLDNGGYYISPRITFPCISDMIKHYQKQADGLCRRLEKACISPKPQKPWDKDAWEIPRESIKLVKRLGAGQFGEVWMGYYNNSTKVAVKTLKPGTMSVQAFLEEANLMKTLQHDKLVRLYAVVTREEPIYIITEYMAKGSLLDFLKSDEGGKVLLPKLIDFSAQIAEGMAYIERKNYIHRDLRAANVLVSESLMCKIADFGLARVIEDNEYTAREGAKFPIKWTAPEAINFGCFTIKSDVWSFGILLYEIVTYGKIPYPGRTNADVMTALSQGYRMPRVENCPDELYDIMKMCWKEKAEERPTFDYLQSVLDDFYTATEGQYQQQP
# UniProt P31152, whole entry: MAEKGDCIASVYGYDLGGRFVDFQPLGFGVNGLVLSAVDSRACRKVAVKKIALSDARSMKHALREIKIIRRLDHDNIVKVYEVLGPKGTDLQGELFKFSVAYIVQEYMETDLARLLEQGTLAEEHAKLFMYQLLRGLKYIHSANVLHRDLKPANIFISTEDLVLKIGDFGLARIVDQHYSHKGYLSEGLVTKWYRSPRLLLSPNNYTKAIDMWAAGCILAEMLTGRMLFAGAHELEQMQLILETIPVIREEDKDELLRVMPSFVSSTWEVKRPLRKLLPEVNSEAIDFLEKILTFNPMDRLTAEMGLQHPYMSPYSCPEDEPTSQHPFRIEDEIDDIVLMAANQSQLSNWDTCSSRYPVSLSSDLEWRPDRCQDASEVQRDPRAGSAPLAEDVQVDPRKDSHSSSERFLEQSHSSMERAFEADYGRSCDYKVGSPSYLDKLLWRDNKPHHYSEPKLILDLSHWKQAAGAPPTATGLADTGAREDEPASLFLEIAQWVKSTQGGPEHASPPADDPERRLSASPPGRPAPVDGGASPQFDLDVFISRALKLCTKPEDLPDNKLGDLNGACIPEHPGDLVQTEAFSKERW
# UniProt Q9BUB5: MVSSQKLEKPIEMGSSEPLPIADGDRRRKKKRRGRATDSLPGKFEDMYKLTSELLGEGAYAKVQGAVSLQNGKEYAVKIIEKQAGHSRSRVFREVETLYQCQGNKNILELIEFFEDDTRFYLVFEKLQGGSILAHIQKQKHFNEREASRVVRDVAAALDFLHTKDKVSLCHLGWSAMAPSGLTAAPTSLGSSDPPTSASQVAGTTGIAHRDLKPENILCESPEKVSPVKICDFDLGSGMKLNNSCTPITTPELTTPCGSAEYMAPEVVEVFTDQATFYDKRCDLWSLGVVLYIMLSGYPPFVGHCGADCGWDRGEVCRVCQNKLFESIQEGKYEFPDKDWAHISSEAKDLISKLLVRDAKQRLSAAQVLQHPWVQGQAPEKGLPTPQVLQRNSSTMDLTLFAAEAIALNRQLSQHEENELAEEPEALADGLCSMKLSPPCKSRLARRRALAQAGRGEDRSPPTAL
# UniProt Q96KB5: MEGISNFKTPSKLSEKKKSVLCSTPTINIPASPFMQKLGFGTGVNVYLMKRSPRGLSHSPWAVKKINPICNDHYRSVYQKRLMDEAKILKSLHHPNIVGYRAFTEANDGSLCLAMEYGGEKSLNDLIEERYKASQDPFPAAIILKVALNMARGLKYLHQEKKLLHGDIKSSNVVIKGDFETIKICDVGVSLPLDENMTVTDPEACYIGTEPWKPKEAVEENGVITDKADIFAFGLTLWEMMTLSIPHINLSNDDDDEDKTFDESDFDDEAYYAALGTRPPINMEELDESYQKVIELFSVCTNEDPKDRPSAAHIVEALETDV
# UniProt P09619, whole entry: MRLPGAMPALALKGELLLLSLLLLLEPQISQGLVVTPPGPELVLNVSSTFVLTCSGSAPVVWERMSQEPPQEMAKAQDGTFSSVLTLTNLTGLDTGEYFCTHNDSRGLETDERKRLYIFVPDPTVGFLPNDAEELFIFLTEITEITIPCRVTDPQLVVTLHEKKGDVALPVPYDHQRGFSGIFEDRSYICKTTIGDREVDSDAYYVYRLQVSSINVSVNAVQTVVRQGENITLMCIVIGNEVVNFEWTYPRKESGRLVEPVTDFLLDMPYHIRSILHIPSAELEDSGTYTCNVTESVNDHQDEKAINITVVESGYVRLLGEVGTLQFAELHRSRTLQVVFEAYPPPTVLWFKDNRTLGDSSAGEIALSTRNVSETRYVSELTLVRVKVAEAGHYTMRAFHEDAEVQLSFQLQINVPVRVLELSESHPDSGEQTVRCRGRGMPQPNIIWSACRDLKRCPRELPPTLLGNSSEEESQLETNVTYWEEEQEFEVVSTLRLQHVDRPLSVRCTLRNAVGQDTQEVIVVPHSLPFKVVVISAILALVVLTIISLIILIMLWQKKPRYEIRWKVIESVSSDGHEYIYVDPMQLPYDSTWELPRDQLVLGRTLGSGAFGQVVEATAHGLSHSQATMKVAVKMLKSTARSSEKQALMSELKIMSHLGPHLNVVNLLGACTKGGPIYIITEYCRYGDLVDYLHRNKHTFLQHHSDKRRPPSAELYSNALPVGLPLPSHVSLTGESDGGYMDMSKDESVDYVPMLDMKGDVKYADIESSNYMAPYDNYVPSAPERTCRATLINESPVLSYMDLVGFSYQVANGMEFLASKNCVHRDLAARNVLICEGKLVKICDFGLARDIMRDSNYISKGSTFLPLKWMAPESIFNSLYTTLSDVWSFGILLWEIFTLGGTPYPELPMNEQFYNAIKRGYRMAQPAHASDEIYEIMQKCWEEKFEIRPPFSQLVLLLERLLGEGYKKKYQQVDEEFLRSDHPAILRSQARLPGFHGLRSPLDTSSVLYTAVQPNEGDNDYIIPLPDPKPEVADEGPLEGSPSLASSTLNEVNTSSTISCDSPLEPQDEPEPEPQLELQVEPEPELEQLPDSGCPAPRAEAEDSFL
# UniProt Q15118, whole entry, looked up: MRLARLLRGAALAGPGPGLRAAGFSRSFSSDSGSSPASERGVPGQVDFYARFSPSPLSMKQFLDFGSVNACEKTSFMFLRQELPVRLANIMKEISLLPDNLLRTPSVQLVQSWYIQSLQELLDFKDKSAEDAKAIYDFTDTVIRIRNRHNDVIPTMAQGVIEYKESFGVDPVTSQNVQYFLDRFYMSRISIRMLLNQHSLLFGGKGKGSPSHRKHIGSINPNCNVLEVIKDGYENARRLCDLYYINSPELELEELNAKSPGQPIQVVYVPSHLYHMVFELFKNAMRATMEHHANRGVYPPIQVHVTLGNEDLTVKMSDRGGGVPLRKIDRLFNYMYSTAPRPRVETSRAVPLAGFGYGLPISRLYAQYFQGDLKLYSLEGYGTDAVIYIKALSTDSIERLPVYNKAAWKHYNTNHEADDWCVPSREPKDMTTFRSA
# Where a name gives a salt, the structure may show the parent alone. The list shows a part of the results. Hit calls seldom repeat between salt and free forms of one compound.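 Kinases, fused to nanoluciferase, were expressed in K562 cells; luminescence was measured every 4 h from 2 to 18 h as percent of control (DMSO = 100%, positive control = 0%). A time point is decreased if signal falls significantly (2 sigma). Hits were called by the authors by a rule that is not shown; the count of time points alone does not decide it.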
# Tests used:
# Assay in all cases: kinase-Nluc reporter destabilization hit call (1 = scored as downregulated) (binary); higher = compound decreases kinase abundance
# Conditions in all cases: K562; 2-18 h
# [1] = biological target: IRAK3 (UniProt Q9Y616)
# [2] = biological target: JAK1 (UniProt P23458)
# [3] = biological target: LCK (UniProt P06239)
# [4] = biological target: LIMK1 (UniProt P53667)
# [5] = biological target: LIMK2 (UniProt P53671)
# [6] = biological target: LMTK2 (UniProt Q8IWU2)
# [7] = biological target: LYN (UniProt P07948)
# [8] = biological target: MAP2K1 (UniProt Q02750)
# [9] = biological target: MAP2K2 (UniProt P36507)
# [10] = biological target: MAP4K2 (UniProt Q12851)
# [11] = biological target: MAPK1 (UniProt P28482)
# [12] = biological target: MAPK4 (UniProt P31152)
# [13] = biological target: MAPKAPK2 (UniProt P49137)
# [14] = biological target: MKNK1 (UniProt Q9BUB5)
# [15] = biological target: NTRK2 (UniProt Q16620)
# [16] = biological target: NTRK3 (UniProt Q16288)
# [17] = biological target: PAK4 (UniProt O96013)
# [18] = biological target: PBK (UniProt Q96KB5)
# [19] = biological target: PDGFRB (UniProt P09619)
# [20] = biological target: PDK1 (UniProt Q15118)
SMILES,kinase-Nluc reporter destabilization hit call [1],kinase-Nluc reporter destabilization hit call [2],kinase-Nluc reporter destabilization hit call [3],kinase-Nluc reporter destabilization hit call [4],kinase-Nluc reporter destabilization hit call [5],kinase-Nluc reporter destabilization hit call [6],kinase-Nluc reporter destabilization hit call [7],kinase-Nluc reporter destabilization hit call [8],kinase-Nluc reporter destabilization hit call [9],kinase-Nluc reporter destabilization hit call [10],kinase-Nluc reporter destabilization hit call [11],kinase-Nluc reporter destabilization hit call [12],kinase-Nluc reporter destabilization hit call [13],kinase-Nluc reporter destabilization hit call [14],kinase-Nluc reporter destabilization hit call [15],kinase-Nluc reporter destabilization hit call [16],kinase-Nluc reporter destabilization hit call [17],kinase-Nluc reporter destabilization hit call [18],kinase-Nluc reporter destabilization hit call [19],kinase-Nluc reporter destabilization hit call [20]
N#CCC1CCN(c2nc(Nc3ccc(N4CCC(O)CC4)cc3)c3c(=O)[nH]ncc3n2)CC1 [Gusacitinib] (10 µM),inactive: 0,inactive: 0,inactive: 0,inactive: 0,inactive: 0,inactive: 0,inactive: 0,inactive: 0,inactive: 0,inactive: 0,inactive: 0,inactive: 0,inactive: 0,inactive: 0,inactive: 0,inactive: 0,inactive: 0,inactive: 0,inactive: 0,inactive: 0
CC(C)(O)CNc1ncc(-c2ccnc(Nc3ccnc(Cl)c3)n2)c(CC2CC2)n1 (2.5 µM),inactive: 0,inactive: 0,inactive: 0,inactive: 0,inactive: 0,inactive: 0,inactive: 0,inactive: 0,inactive: 0,inactive: 0,inactive: 0,inactive: 0,inactive: 0,inactive: 0,inactive: 0,inactive: 0,inactive: 0,inactive: 0,inactive: 0,inactive: 0
Cc1ccc2cc(-c3c(C)ccc(C(=O)c4c(-c5ccccc5)n(C)n(-c5ccccc5)c4=O)c3N)ccc2n1 (2.5 µM),inactive: 0,inactive: 0,inactive: 0,inactive: 0,inactive: 0,inactive: 0,inactive: 0,inactive: 0,inactive: 0,inactive: 0,inactive: 0,inactive: 0,inactive: 0,inactive: 0,inactive: 0,inactive: 0,inactive: 0,inactive: 0,inactive: 0,inactive: 0
O=C(O)CCC(=O)Nc1ccc(Br)cn1 [Bikinin] (10 µM),inactive: 0,inactive: 0,inactive: 0,inactive: 0,inactive: 0,inactive: 0,inactive: 0,inactive: 0,inactive: 0,inactive: 0,inactive: 0,inactive: 0,inactive: 0,inactive: 0,inactive: 0,inactive: 0,inactive: 0,inactive: 0,inactive: 0,inactive: 0
NC(=O)c1ccc(-c2nc(-c3ccc4c(c3)OCCO4)c(-c3ccccn3)[nH]2)cc1 (10 µM),inactive: 0,inactive: 0,inactive: 0,inactive: 0,inactive: 0,inactive: 0,inactive: 0,inactive: 0,inactive: 0,inactive: 0,inactive: 0,inactive: 0,inactive: 0,inactive: 0,inactive: 0,inactive: 0,inactive: 0,inactive: 0,inactive: 0,inactive: 0
Cc1[nH]c(/C=C2\C(=O)Nc3ccc(F)cc32)c(C)c1C(=O)N[C@H]1CCN(C(=O)N(C)C)C1 [Vorolanib] (10 µM),inactive: 0,inactive: 0,inactive: 0,inactive: 0,inactive: 0,inactive: 0,inactive: 0,inactive: 0,inactive: 0,inactive: 0,inactive: 0,inactive: 0,inactive: 0,inactive: 0,inactive: 0,inactive: 0,inactive: 0,inactive: 0,inactive: 0,inactive: 0
C[C@@]1(c2ncncc2F)NC(=O)c2cc(-c3cn[nH]c3)ccc21 (10 µM),inactive: 0,inactive: 0,inactive: 0,inactive: 0,inactive: 0,inactive: 0,inactive: 0,inactive: 0,inactive: 0,inactive: 0,inactive: 0,inactive: 0,inactive: 0,inactive: 0,inactive: 0,inactive: 0,inactive: 0,inactive: 0,inactive: 0,inactive: 0
C[C@@H](c1ccc(F)cc1)n1nnc2cnc3ccc(-c4ccc5ocnc5c4)cc3c21 (10 µM),inactive: 0,inactive: 0,inactive: 0,inactive: 0,inactive: 0,inactive: 0,inactive: 0,inactive: 0,inactive: 0,inactive: 0,inactive: 0,inactive: 0,inactive: 0,inactive: 0,inactive: 0,inactive: 0,inactive: 0,inactive: 0,inactive: 0,inactive: 0
Oc1cc(O)c2cc(O)c(-c3cc(O)c(O)c(O)c3)[o+]c2c1 [Delphinidin (chloride)] (10 µM),inactive: 0,inactive: 0,inactive: 0,inactive: 0,inactive: 0,inactive: 0,inactive: 0,inactive: 0,inactive: 0,inactive: 0,inactive: 0,inactive: 0,inactive: 0,inactive: 0,inactive: 0,inactive: 0,inactive: 0,inactive: 0,inactive: 0,inactive: 0
Nc1cc(C(F)(F)F)c(-c2cc(N3CCOCC3)nc(N3CCOCC3)n2)cn1 [Buparlisib (Hydrochloride)] (2.5 µM),inactive: 0,inactive: 0,inactive: 0,inactive: 0,inactive: 0,inactive: 0,inactive: 0,inactive: 0,inactive: 0,inactive: 0,inactive: 0,inactive: 0,inactive: 0,inactive: 0,inactive: 0,inactive: 0,inactive: 0,inactive: 0,inactive: 0,inactive: 0
COc1cc2ncnc(Nc3ccc(Cl)cc3F)c2cc1OC (10 µM),inactive: 0,inactive: 0,inactive: 0,inactive: 0,inactive: 0,inactive: 0,inactive: 0,inactive: 0,inactive: 0,inactive: 0,inactive: 0,inactive: 0,inactive: 0,inactive: 0,inactive: 0,inactive: 0,inactive: 0,inactive: 0,inactive: 0,inactive: 0
CCCCCCCCCCCCC/C=C/[C@@H](O)[C@@H](N)CO [D-erythro-Sphingosine] (2.5 µM),inactive: 0,inactive: 0,inactive: 0,inactive: 0,inactive: 0,inactive: 0,inactive: 0,inactive: 0,inactive: 0,inactive: 0,inactive: 0,inactive: 0,inactive: 0,inactive: 0,inactive: 0,inactive: 0,inactive: 0,inactive: 0,inactive: 0,inactive: 0
CN(C)C(=O)Cn1cc(-c2ccc(-c3cncc4ccccc34)cc2)cn1 (10 µM),inactive: 0,inactive: 0,inactive: 0,inactive: 0,inactive: 0,inactive: 0,inactive: 0,inactive: 0,inactive: 0,inactive: 0,inactive: 0,inactive: 0,inactive: 0,inactive: 0,inactive: 0,inactive: 0,inactive: 0,inactive: 0,inactive: 0,inactive: 0
c1cncc(CN2CCC(n3ncc4c(N5CCOCC5)nc(-c5ccc6[nH]ccc6c5)nc43)CC2)c1 (10 µM),inactive: 0,inactive: 0,inactive: 0,active: 1,inactive: 0,inactive: 0,inactive: 0,inactive: 0,inactive: 0,inactive: 0,inactive: 0,inactive: 0,inactive: 0,inactive: 0,inactive: 0,inactive: 0,inactive: 0,inactive: 0,inactive: 0,inactive: 0
Cc1cc(=O)oc2c(C=O)c(O)ccc12 (10 µM),inactive: 0,inactive: 0,inactive: 0,inactive: 0,inactive: 0,inactive: 0,inactive: 0,inactive: 0,inactive: 0,inactive: 0,inactive: 0,inactive: 0,inactive: 0,inactive: 0,inactive: 0,inactive: 0,inactive: 0,inactive: 0,inactive: 0,inactive: 0
FC(F)(F)c1ccc(CNc2ccc(Cc3c[nH]c4ncccc34)cn2)cc1 (10 µM),inactive: 0,inactive: 0,inactive: 0,inactive: 0,inactive: 0,inactive: 0,inactive: 0,inactive: 0,inactive: 0,inactive: 0,inactive: 0,inactive: 0,inactive: 0,inactive: 0,inactive: 0,inactive: 0,inactive: 0,inactive: 0,inactive: 0,inactive: 0
CC[C@@H](Oc1nc(Oc2cc(C)cc(-c3cccc(CN)c3)c2)c(F)cc1F)C(=O)O (10 µM),inactive: 0,inactive: 0,inactive: 0,inactive: 0,inactive: 0,inactive: 0,inactive: 0,inactive: 0,inactive: 0,inactive: 0,inactive: 0,inactive: 0,inactive: 0,inactive: 0,inactive: 0,inactive: 0,inactive: 0,inactive: 0,inactive: 0,inactive: 0
O=C1NC(=O)/C(=C\c2cccc(C(F)(F)F)c2)S1 (2.5 µM),inactive: 0,inactive: 0,inactive: 0,inactive: 0,inactive: 0,inactive: 0,inactive: 0,inactive: 0,inactive: 0,inactive: 0,inactive: 0,inactive: 0,inactive: 0,inactive: 0,inactive: 0,inactive: 0,inactive: 0,inactive: 0,inactive: 0,inactive: 0

# Single records (already shown). Order of values: kinase-Nluc reporter destabilization hit call [1] | kinase-Nluc reporter destabilization hit call [2] | kinase-Nluc reporter destabilization hit call [3] | kinase-Nluc reporter destabilization hit call [4] | kinase-Nluc reporter destabilization hit call [5] | kinase-Nluc reporter destabilization hit call [6] | kinase-Nluc reporter destabilization hit call [7] | kinase-Nluc reporter destabilization hit call [8] | kinase-Nluc reporter destabilization hit call [9] | kinase-Nluc reporter destabilization hit call [10] | kinase-Nluc reporter destabilization hit call [11] | kinase-Nluc reporter destabilization hit call [12] | kinase-Nluc reporter destabilization hit call [13] | kinase-Nluc reporter destabilization hit call [14] | kinase-Nluc reporter destabilization hit call [15] | kinase-Nluc reporter destabilization hit call [16] | kinase-Nluc reporter destabilization hit call [17] | kinase-Nluc reporter destabilization hit call [18] | kinase-Nluc reporter destabilization hit call [19] | kinase-Nluc reporter destabilization hit call [20]
# C[C@@H](c1ccc(F)cc1)n1nnc2cnc3ccc(-c4ccc5ocnc5c4)cc3c21 (10 µM) is entered as inactive: 0 | inactive: 0 | inactive: 0 | inactive: 0 | inactive: 0 | inactive: 0 | inactive: 0 | inactive: 0 | inactive: 0 | inactive: 0 | inactive: 0 | inactive: 0 | inactive: 0 | inactive: 0 | inactive: 0 | inactive: 0 | inactive: 0 | inactive: 0 | inactive: 0 | inactive: 0
# Cc1[nH]c(/C=C2\C(=O)Nc3ccc(F)cc32)c(C)c1C(=O)N[C@H]1CCN(C(=O)N(C)C)C1 [Vorolanib] (10 µM) is entered as inactive: 0 | inactive: 0 | inactive: 0 | inactive: 0 | inactive: 0 | inactive: 0 | inactive: 0 | inactive: 0 | inactive: 0 | inactive: 0 | inactive: 0 | inactive: 0 | inactive: 0 | inactive: 0 | inactive: 0 | inactive: 0 | inactive: 0 | inactive: 0 | inactive: 0 | inactive: 0
